# From publication PMC4227788, “Architecture and ssDNA interaction of the Timeless-Tipin-RPA complex” (Nucleic Acids Research, 2014)
# Chains of the proteins cited; added tags and fusions are not shown. Residues count along the entry.
# UniProt Q62193, residues 43-270: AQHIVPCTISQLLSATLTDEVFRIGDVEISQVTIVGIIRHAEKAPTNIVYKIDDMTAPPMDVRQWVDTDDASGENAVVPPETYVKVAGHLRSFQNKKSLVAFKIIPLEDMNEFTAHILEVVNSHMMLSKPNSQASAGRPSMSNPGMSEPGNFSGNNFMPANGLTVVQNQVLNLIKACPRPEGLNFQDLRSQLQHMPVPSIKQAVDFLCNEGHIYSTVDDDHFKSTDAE
# UniProt Q8VEE4, residues 190-623: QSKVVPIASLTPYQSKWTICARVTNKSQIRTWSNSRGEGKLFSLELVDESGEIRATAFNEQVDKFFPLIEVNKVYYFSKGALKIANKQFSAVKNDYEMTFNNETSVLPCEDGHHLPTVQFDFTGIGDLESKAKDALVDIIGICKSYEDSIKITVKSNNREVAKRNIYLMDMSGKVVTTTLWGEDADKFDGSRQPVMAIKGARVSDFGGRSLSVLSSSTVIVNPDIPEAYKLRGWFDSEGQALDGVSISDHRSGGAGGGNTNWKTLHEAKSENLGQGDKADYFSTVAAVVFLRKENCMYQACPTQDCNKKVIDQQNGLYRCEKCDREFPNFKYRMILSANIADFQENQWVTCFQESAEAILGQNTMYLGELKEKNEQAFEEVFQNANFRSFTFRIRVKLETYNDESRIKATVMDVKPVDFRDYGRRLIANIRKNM
# UniProt Q9CQ71: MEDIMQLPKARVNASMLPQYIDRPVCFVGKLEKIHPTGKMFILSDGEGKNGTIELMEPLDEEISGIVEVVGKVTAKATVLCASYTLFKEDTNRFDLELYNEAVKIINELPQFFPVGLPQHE
# These are yes or no findings as the source states them, for the method shown. Some entries that bind do so weakly or less than the wild type.
# Columns and labels:
# [1] = target: RPA32 (DBD-D and WH domain, residues 43-270) (mouse) (UniProt Q62193); assay: co-purification (Ni-NTA, Q-sepharose, SEC); RPA32/14 co-expressed in E. coli and co-purified; eluted from Q-sepharose as a single peak
# [2] = target: RPA70 (DBD-A, -B, -C, residues 190-623) (mouse) (UniProt Q8VEE4); assay: SEC; RPA70/32/14 co-expressed in E. coli and co-purified (Ni-NTA, Q-sepharose, SEC; 20 mM Hepes pH 7.0, 125 mM NaCl, 2 mM DTT, 0.01 mM zinc acetate); single peak
binding [1],binding [2],Substance
binds,binds,RPA14 (residues 1-121) (from UniProt Q9CQ71 1-121)
,binds,"RPA32 (DBD-D and WH domain, residues 43-270) (from UniProt Q62193 43-270) (domain or fragment)"
